This list was built around the results that the source calls inconclusive (neither active nor inactive); the mix of calls is not that of the screen. A potency beside an inconclusive call is a rough fit, not a confirmed value. Activity calls are given as the source filed them. Cut-off not given; nearly all actives show AC50 up to about 23 µM.
assay: growth inhibition of DIPG glioma cells, dose response, cell-based, SU-DIPG-XIII, MIPE5.0, CellTiter-Glo, qHTS (AID 1347064); details: SU-DIPG-XIII viability, CellTiter-Glo ATP luminescence;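 on AC50: cells exposed to compound for 48 hours before the viability read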

SMILES	AC50	outcome
Cc1c(NC(=O)c2cc3c(s2)CCCC3)cccc1-c1cn(C)c(=O)c(Nc2ccc(C3C(=O)N(C)CCN3C)cc2)n1 (configuration not stated)	inconclusive: 18.6 µM [cytotoxic]	
COc1ccc(Cl)c(Nc2nc3ccccc3nc2NS(=O)(=O)c2cccc(NC(=O)C(C)(C)N)c2)c1	inconclusive: 11.8 µM [cytotoxic]	
CCC(CC)C(c1ccc(Nc2nc3ccccc3s2)cc1)n1cncn1 (configuration not stated)	inconclusive: 37.2 µM [cytotoxic]	
Cc1cc(C(=O)Nc2cc(Oc3ccc4nc(NC(=O)C5CC5)cn4n3)ccc2C)n(C)n1	active: 10.5 µM	
CN(C)CCCOc1ccc(-c2ccc3ncc4c(c3c2)n(C2CCOCC2)c(=O)n4C)cn1	inconclusive: 2.57 µM [cytotoxic]	
CCS(=O)(=O)Nc1ccc(Oc2ccc(F)cc2F)c(-c2cn(C)c(=O)c3[nH]ccc23)c1	active: 0.105 µM	
CC(=NNC(=O)c1cccc(S(=O)(=O)N2CCOCC2)c1)c1cc(Cl)ccc1O	active: 6.61 µM	
C[C@@H]1C[C@H](N)C[C@H](c2ccncc2NC(=O)c2ccc(F)c(-c3c(F)cccc3F)n2)C1		inconclusive
CC(C)NC(=O)COc1cccc(-c2nc(Nc3ccc4[nH]ncc4c3)c3ccccc3n2)c1	active: 5.9 µM	
O=C(c1ccc(Nc2nc(C3CC3)cn3c(-c4cn[nH]c4)cnc23)c(F)c1)N1CCOCC1	active: 5.9 µM	
C=CC(=O)N[C@H]1CN(c2nc(Nc3cn(C)nc3OC)c3ncn(C)c3n2)C[C@@H]1F	inconclusive: 23.5 µM [cytotoxic]	
CCN(CC)C(=O)Cc1csc(NS(=O)(=O)c2cccc(Cl)c2C)n1	inconclusive: 2.95 µM [cytotoxic]	
C[C@H]1COCCN1c1cc(C2(S(=O)(=O)C3CC3)CC2)nc(-c2ccc(NC(=S)NCCO)cc2)n1	active: 0.332 µM	
COc1ccc2[nH]c(C(=O)N3CCC(CC(C)(C)O)CC3)cc2c1	inconclusive: 0.00468 µM	
CN1CCN(C2CCC(n3cc(-c4ccc(Oc5ccccc5)cc4)c4c(N)ncnc43)CC2)CC1 (configuration not stated)	inconclusive: 2.35 µM [cytotoxic]	
Cc1cc(O[C@@H](CCC(F)(F)F)c2ccc(C(=O)NCCC(=O)O)cc2)cc(C)c1-c1ccc(C(C)(C)C)cc1	active: 11.8 µM	
COc1cc(C(=O)O)ccc1NC(=O)[C@@H]1N[C@@H](CC(C)(C)C)[C@](C#N)(c2ccc(Cl)cc2F)[C@H]1c1cccc(Cl)c1F	active: 14.8 µM	
COc1ncc(Nc2ncc([C@H](C)N3CCN(S(C)(=O)=O)CC3)cc2-c2nc(C)nc(N)n2)cc1F	active: 0.525 µM	
NC(=O)c1cnc2[nH]ccc2c1NC1C2CC3C[C@H]1CC(O)(C3)C2 (some centres not stated)	inconclusive: 7.42 µM [cytotoxic]	
NCCCC[C@H](NC(=O)[C@@H](NC(=O)[C@H](Cc1c[nH]c2ccccc12)NC(=O)[C@H](CCCCN)NC(=O)[C@H](CCCCN)NC(=O)[C@H](Cc1c[nH]c2ccccc12)NC(=O)[C@H](Cc1c[nH]c2ccccc12)NC(=O)[C@H](CCCCN)NC(=O)[C@@H](N)CCCCN)C(c1ccccc1)c1ccccc1)C(N)=O	inconclusive: 18.6 µM [cytotoxic]	
CN(C)CCNC(=O)NC[C@H]1CC[C@@H]2[C@H](O1)c1cc(C(F)(F)F)ccc1N[C@H]2c1ccccc1	inconclusive: 0.209 µM [cytotoxic]	
Cc1ccc(C(=O)Nc2ccc(Oc3cc4cnn(C)c4cc3-c3cn[nH]c3)c(F)c2)c(=O)n1-c1ccc(F)cc1	inconclusive: 6.61 µM [cytotoxic]	
O=C(c1c(F)ccc(NS(=O)(=O)N2CC[C@@H](F)C2)c1F)c1c[nH]c2ncc(-c3cnc(C4CC4)nc3)cc12	inconclusive: 18.6 µM [cytotoxic]	
Cc1ccc(Nc2nnc(Cc3ccncc3)c3ccccc23)cc1Br	inconclusive: 13.2 µM [cytotoxic]	
Nc1nc(OC(c2ccc(-c3cccc(F)c3)cc2)C(F)(F)F)cc(-c2ccc(C[C@@H](N)C(=O)O)cc2)n1 (some centres not stated)	inconclusive: 20.9 µM [cytotoxic]	
Cc1ccc(Nc2ncc3c(n2)N(C)C(=O)N(c2cc(NC(=O)c4cccc(C(F)(F)F)c4)ccc2C)C3)cn1	active: 0.0742 µM	
CC(C)[C@](O)(c1ccc2cc(OC(F)F)c(OC(F)F)cc2c1)c1cn[nH]n1	inconclusive: 11.8 µM [cytotoxic]	

A draw from above in order of length of the SMILES, low to high.
SMILES	AC50	outcome
CC(=NNC(=O)c1cccc(S(=O)(=O)N2CCOCC2)c1)c1cc(Cl)ccc1O	active: 6.61 µM	
CCS(=O)(=O)Nc1ccc(Oc2ccc(F)cc2F)c(-c2cn(C)c(=O)c3[nH]ccc23)c1	active: 0.105 µM	
C[C@@H]1C[C@H](N)C[C@H](c2ccncc2NC(=O)c2ccc(F)c(-c3c(F)cccc3F)n2)C1		inconclusive
